Experimental data: PubChem BioAssay AID1159600 (NIAID, 2016)

- Aim: 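Effect of silencing core TLR signalling genes on R848-induced TNF reporter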 (primary screen)
- Cell system: human THP-1 TNF reporter clone B5, made macrophage-like with PMA
- Reagents: single siRNA against human genes
- Time to read-out: 4 h ligand stimulation, assayed 48 to 72 h after siRNA transfection
- Challenge: R848 (TLR7/8 agonist) for 4 hours before lysis; dose not given
- Measured: 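TNF promoter firefly to renilla luciferase ratio after 4 h R848, scaled per plate by median and MAD, robust z-score against negative controls, mean of replicates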
- Scale: TNF reporter z-score: higher = stronger TNF promoter reporter signal after R848
- Hit rule: 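siRNAs graded by distance of mean z-score from zero in steps of 1, 1.5, 2 and 2.5; active calls sit at roughly -1.5 or below, or 1.5 or above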
- Meaning of the calls: active = strong change in TNF reporter (up or down); inactive = little change
The whole screen tested 756 reagents; this is a part drawn at random. 134 of all reagents (18%) count as active. 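Active includes both reduced and increased reporter signal, though most active siRNAs reduce it; R848 dose unknown.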 Reagents against one gene are numbered here. No sequences are given here. Not stated in the record: the amount of reagent.

For TBK1 (TANK binding kinase 1) #1 the deposit lists TNF reporter z-score -0.811; inactive. After knock-down of TBK1 (TANK binding kinase 1) #2, the record shows TNF reporter z-score -0.805; inactive. For TBK1 (TANK binding kinase 1) #3 the deposit lists TNF reporter z-score 0.0932; inactive. Knock-down of TBK1 (TANK binding kinase 1) #4 came out at: TNF reporter z-score 1.25; inactive. For TBK1 (TANK binding kinase 1) #5, the entry reads TNF reporter z-score 0.485; inactive. After knock-down of TBK1 (TANK binding kinase 1) #6, the record shows TNF reporter z-score 0.284; inactive.

For MAPKAPK2 (MAPK activated protein kinase 2) #1, the entry reads TNF reporter z-score 0.497; inactive. For MAPKAPK2 (MAPK activated protein kinase 2) #2, the entry reads TNF reporter z-score -0.222; inactive. MAPKAPK2 (MAPK activated protein kinase 2) #3 showed TNF reporter z-score -1.03; inactive. For MAPKAPK2 (MAPK activated protein kinase 2) #4 the deposit lists TNF reporter z-score -0.759; inactive. Against MAPKAPK2 (MAPK activated protein kinase 2) #5, the entry reads TNF reporter z-score 0.179; inactive. With knock-down of MAPKAPK2 (MAPK activated protein kinase 2) #6, the screen gave TNF reporter z-score -0.188; inactive.

Depletion of IFNAR2 (interferon alpha and beta receptor subunit 2) #1 gave: TNF reporter z-score -2.56; active. Against IFNAR2 (interferon alpha and beta receptor subunit 2) #2, the entry reads TNF reporter z-score -1.35; inactive. Against IFNAR2 (interferon alpha and beta receptor subunit 2) #3, the values are TNF reporter z-score 0.0107; inactive. IFNAR2 (interferon alpha and beta receptor subunit 2) #4 showed TNF reporter z-score -1.29; inactive. For IFNAR2 (interferon alpha and beta receptor subunit 2) #5, the entry reads TNF reporter z-score 0.0754; inactive. For IFNAR2 (interferon alpha and beta receptor subunit 2) #6 the deposit lists TNF reporter z-score -0.316; inactive.

DUSP1 (dual specificity phosphatase 1) #1 gave TNF reporter z-score -0.729; inactive. Against DUSP1 (dual specificity phosphatase 1) #2 the deposit lists TNF reporter z-score -0.226; inactive. DUSP1 (dual specificity phosphatase 1) #3 gave TNF reporter z-score 1.34; inactive. Depletion of DUSP1 (dual specificity phosphatase 1) #4 gave: TNF reporter z-score 0.222; inactive. Knock-down of DUSP1 (dual specificity phosphatase 1) #5 gave: TNF reporter z-score -0.891; inactive. Against DUSP1 (dual specificity phosphatase 1) #6 the deposit lists TNF reporter z-score 0.955; inactive.

Reprinted from the listing, 7 entries:
MAPKAPK2 (MAPK activated protein kinase 2) #3 — TNF reporter z-score = -1.03; Outcome = inactive
MAPKAPK2 (MAPK activated protein kinase 2) #4 — TNF reporter z-score = -0.759; Outcome = inactive
MAPKAPK2 (MAPK activated protein kinase 2) #5 — TNF reporter z-score = 0.179; Outcome = inactive
MAPKAPK2 (MAPK activated protein kinase 2) #6 — TNF reporter z-score = -0.188; Outcome = inactive
IFNAR2 (interferon alpha and beta receptor subunit 2) #1 — TNF reporter z-score = -2.56; Outcome = active
IFNAR2 (interferon alpha and beta receptor subunit 2) #2 — TNF reporter z-score = -1.35; Outcome = inactive
IFNAR2 (interferon alpha and beta receptor subunit 2) #3 — TNF reporter z-score = 0.0107; Outcome = inactive

Further entries follow:
RIPK3 (receptor interacting serine/threonine kinase 3) #1 scored TNF reporter z-score -0.183; inactive. After knock-down of RIPK3 (receptor interacting serine/threonine kinase 3) #2, the record shows TNF reporter z-score -0.199; inactive. With knock-down of RIPK3 (receptor interacting serine/threonine kinase 3) #3 the results were TNF reporter z-score 0.388; inactive. Knock-down of RIPK3 (receptor interacting serine/threonine kinase 3) #4 came out at: TNF reporter z-score -0.622; inactive. After knock-down of RIPK3 (receptor interacting serine/threonine kinase 3) #5, the record shows TNF reporter z-score -0.31; inactive. RIPK3 (receptor interacting serine/threonine kinase 3) #6 scored TNF reporter z-score 0.115; inactive.

MAP2K2 (mitogen-activated protein kinase kinase 2) #1 scored TNF reporter z-score -0.504; inactive. Knock-down of MAP2K2 (mitogen-activated protein kinase kinase 2) #2 came out at: TNF reporter z-score 1.07; inactive. MAP2K2 (mitogen-activated protein kinase kinase 2) #3 scored TNF reporter z-score -1.44; inactive. After knock-down of MAP2K2 (mitogen-activated protein kinase kinase 2) #4 the results were TNF reporter z-score 0.895; inactive. Silencing of MAP2K2 (mitogen-activated protein kinase kinase 2) #5 gave: TNF reporter z-score 0.677; inactive. Silencing of MAP2K2 (mitogen-activated protein kinase kinase 2) #6 came out at: TNF reporter z-score 0.141; inactive.

SP1 (Sp1 transcription factor) #1 scored TNF reporter z-score -2.22; active. Knock-down of SP1 (Sp1 transcription factor) #2 gave: TNF reporter z-score -1.15; inactive. SP1 (Sp1 transcription factor) #3 scored TNF reporter z-score 2.29; active. Against SP1 (Sp1 transcription factor) #4 the deposit lists TNF reporter z-score 2.26; active. With knock-down of SP1 (Sp1 transcription factor) #5, the record shows TNF reporter z-score 1.67; active. Depletion of SP1 (Sp1 transcription factor) #6 came out at: TNF reporter z-score -1.08; inactive.

With knock-down of DAB2IP (DAB2 interacting protein) #1, the screen gave TNF reporter z-score -0.729; inactive. DAB2IP (DAB2 interacting protein) #2 scored TNF reporter z-score -1.68; active. Knock-down of DAB2IP (DAB2 interacting protein) #3 gave: TNF reporter z-score 0.878; inactive. For DAB2IP (DAB2 interacting protein) #4, the entry reads TNF reporter z-score -1.15; inactive. With knock-down of DAB2IP (DAB2 interacting protein) #5, the screen gave TNF reporter z-score -1.25; inactive. Silencing of DAB2IP (DAB2 interacting protein) #6 resulted in: TNF reporter z-score -0.393; inactive.
